Results: article PMC2680759, “Non-Invasive Molecular Imaging of Fibrosis Using a Collagen-Targeted Peptidomimetic of the Platelet Collagen Receptor Glycoprotein VI” (PLoS ONE, 2009)
Results are given in words; binding and its absence hold for the method and conditions named.

Columns and labels:
Assay in all cases: ELISA; solid-phase assay: biotin-peptides (50 µg.mL^−1) on microtitration wells coated with 1 µg of protein, detected with HRP-coupled extravidin; in competition collagelin was mixed with GPVI-Fc, 9O12.2 IgG or 3J24.2 IgG (50 µg.mL^−1 each) before addition to collagen-coated wells; both purified
murine laminin (murine) = molecular target: murine laminin (murine)
[1] = molecular target: human fibronectin (human)
rat vitronectin (rat) = molecular target: rat vitronectin (rat)

Measured: binding

SGSGCGPQGARGLTGASAGGPC (biotinylated at the N-terminus; cyclic) [cyclic control peptide Pc, biotinylated (B-Pc)]
no binding (tested: 50 µg.mL^−1): all assays above
